At least one structure is not confirmed: it was looked up by name or label, or the drawing left a doubt. Where a SMILES comes first, the peptide text is derived from it.
Tested on: OVA-sensitized rats
Assay: bradykinin-induced bronchoconstriction (RL, Flexivent) in anesthetized ovalbumin-sensitized rats
Type: in vivo, Brown Norway rats
Settings: asthmatic (but not naïve) rats, nebulized bradykinin
Experimental: In order to examine the involvement of LPA-induced carotid body activity on airway resistance in response to bradykinin nebulization, alfaxan-anesthetized animals and the Flexivent system were used. These experiments were performed with a number of acute interventions affecting the proposed pathway, including vagotomy, carotid body denervation, and TRPV1 and/or LPA receptor blockade. Prior to bradykinin, these interventions had no effect on airway resistance (Holm-S̆idák post hoc test comparing asthma control vs any manipulation group: p>0.06) and as expected, bradykinin had no effect on non-asthmatic lungs (p>0.3). […]
OVA Cohort 1 (n=26): To determine the effect of bradykinin and OVA-sensitization on airway resistance (RL) OVA-sensitization (day 28) and naïve rats were anesthetized with isoflurane (5%, balance O2) and instrumented for surgery. […] Data were analyzed with two-way repeated measures ANOVA (time×group). […] Airway mechanics were measured in response to bradykinin nebulizations (as in Cohort 1). Heart rate was attained from the blood pressure waveform, SaO2 was monitored from a pulse oximeter (Kent Scientific, Torrington Conn.) and blood gases were analyzed from 0.1 ml arterial samples drawn before and after bradykinin with a blood gas analyzer (Element POC, Heska Barrie, ON). […]

## NC(N)=NCCC[C@H](NC(=O)[C@H](Cc1ccccc1)NC(=O)[C@@H]1CCCN1C(=O)[C@H](CO)NC(=O)[C@H](Cc1ccccc1)NC(=O)CNC(=O)[C@@H]1CCCN1C(=O)[C@@H]1CCCN1C(=O)[C@@H](N)CCCN=C(N)N)C(=O)O [Bradykinin] (H-RPPGFSPFR-OH)
  increase in lung resistance: ~3 fold

Reference: patent US20200215085A1, “Method to Abate Acute Airway Hypersensitivity and Asthma Attacks” (UTI Limited Partnership, priority 2017, published 2020)
